Our source for the survivor count and T/C values is PubChem BioAssay AID256 (DTP/NCI, 2004).

The list shows only some results of the screen, not a fair sample: it gathers tests that were run many times, whatever their T/C, doses with no T/C, and many T/C values between a quarter and a half above the control. Further doses and runs are listed elsewhere. T/C gives the treated animals as a percentage of the vehicle group. Some entries give survivors of the animals treated and no T/C: the source files T/C as zero there, which appears to mark a toxic dose or a test without result, not a measured value. Some survivor counts are full or nearly so, which does not show that the dose was tolerated: survival well below the control is almost never listed, so the zero probably covers shortened survival too. Counts of survivors are from the toxicity check (mostly the fifth day) where no day follows; animals may have died later. Schedule codes are those of the source, taken here to give the interval after Q, in days (D) or hours (H), and the number of doses after X. Some doses were run more than once; their values stand side by side, smallest first. Where survival is the endpoint, this PubChem deposit counts one and a half times the control or more as active, and values a quarter to a half above the control carry no call in these data; other NCI protocols may use other cut-offs. Signs of the kind (2×) stand for listed records that agree. Some T/C values carry the count of animals alive at the toxicity check (mostly the fifth day); where none is given, no animal had died by that day.

For this experiment, the system named is CD2F1 mice, L1210 leukemia ip, survival T/C. Kind of experiment: NCI In Vivo Anticancer Drug Screen. Data for tumor model L1210 Leukemia (intraperitoneal) in CD2F1 (CDF1) mice. As to conditions: higher T/C = longer survival. Summed up:
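Transplantable tumor in mice; compound-treated vs vehicle-treated groups. Read-out = treated/control ratio of the measured endpoint.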

Where [1] appears, read: T/C endpoint: mean survival time, dose: 400.0 mg/kg/injection, schedule: Q04DX003 (ip), vehicle: saline with Tween-80.
Where [2] appears, read: T/C endpoint: mean survival time, dose: 200.0 mg/kg/injection, schedule: Q01DX009 (ip), vehicle: saline with Tween-80.
The mark [3] stands for this setting: T/C endpoint: mean survival time, dose: 100.0 mg/kg/injection, schedule: Q01DX009 (ip), vehicle: saline with Tween-80.
The mark [4] stands for this setting: T/C endpoint: mean survival time, dose: 400.0 mg/kg/injection, schedule: Q01DX009 (ip), vehicle: saline with Tween-80.
Setting [5] is: T/C endpoint: mean survival time, dose: 400.0 mg/kg/injection, schedule: Q01DX001 (ip), vehicle: saline.
[6] abbreviates: T/C endpoint: mean survival time, dose: 400.0 mg/kg/injection, schedule: Q01DX001 (ip), vehicle: saline with Tween-80.

Turning to `COc1cccc2c1C(=O)c1c(O)c3c(c(O)c1C2=O)C[C@@](O)(C(=O)CSc1ccccc1)C[C@@H]3OC1CC(N)C(O)C(C)O1` (some centres not stated), for the setting “T/C endpoint: mean survival time, dose: 25.0 mg/kg/injection, schedule: Q01DX009 (ip), vehicle: water”, the survivor count was 1 of 6.

As for `CC(=O)NCC1(c2ccccc2)CCN(CCCC(=O)c2ccc(F)cc2)CC1`, the survivor count (T/C endpoint: mean survival time, dose: 200.0 mg/kg/injection, schedule: Q04DX003 (ip), vehicle: Klucel (hydroxypropylcellulose) (HPC)) is given as 6 of 6.

On to `Nc1ccccc1SSc1ccccc1N`, for which, under setting [1], the survivor count is recorded as 0 of 6.

With `CCOP(=S)(OCC)N1c2ccccc2Sc2ccccc21`, the survivor count under setting [2] is on record as 4 of 6.

Regarding `O=C1c2cccc3cc([N+](=O)[O-])cc(c23)C(=O)N1CCN1CCCC1`, the T/C was 131 % of control (T/C endpoint: mean survival time, dose: 6.0 mg/kg/injection, schedule: Q01DX009 (ip), vehicle: saline with Tween-80); 137 % of control (T/C endpoint: mean survival time, dose: 12.0 mg/kg/injection, schedule: Q01DX009 (ip), vehicle: saline with Tween-80); 130 and 140 % of control (T/C endpoint: median survival time, dose: 25.0 mg/kg/injection, schedule: Q01DX009 (ip), vehicle: saline with Tween-80); 140 % of control (T/C endpoint: median survival time, dose: 50.0 mg/kg/injection, schedule: Q01DX009 (ip), vehicle: saline with Tween-80). For the same compound, the survivor count (T/C endpoint: mean survival time, dose: 48.0 mg/kg/injection, schedule: Q01DX009 (ip), vehicle: saline with Tween-80) is given as 2 of 6.

For `CC(C)S(=O)(=O)/C(Cl)=C(/Cl)C(Cl)=C(Cl)Cl`, the survivor count runs as follows: under setting [3], 3 of 6; under setting [2], 2 of 6.

For `C/C=C1\C[C@@H]2C(OC)Nc3cc(O)c(OC)cc3C(=O)N2C1` (some centres not stated), the survivor count reads like this: (T/C endpoint: mean survival time, dose: 3.0 mg/kg/injection, schedule: Q04DX002 (ip), vehicle: saline) 1 of 3; (T/C endpoint: mean survival time, dose: 6.0 mg/kg/injection, schedule: Q04DX002 (ip), vehicle: saline) 2 of 3.

As for `Clc1cc(Cl)c(C[N+]23CN4CN(CN(C4)C2)C3)cc1Cl`, the survivor count runs as follows: under setting [2], 1 of 6; under setting [4], 0 of 6; under setting [1], 0 of 6.

As for `C1CCC(CCC2CCCC[N-]2)[N-]C1.[I][Zn][I]` (configuration not stated), the survivor count under setting [5] is listed as 0 of 3.

In the case of `COc1ccc(-c2nnc(-c3ccc(OC)c(Cl)c3)nn2)cc1Cl`, the survivor count under setting [1] is given as 6 of 6.

For the compound `COc1ccccc1/C(C)=N\NC(=O)c1ccccc1`, the survivor count under setting [4] is 3 of 6.

Take `Nc1nc(-c2cccc3ccccc23)cc2ccccc12`: under setting [4], the survivor count was 0 of 6 and 2 of 6.

Turning to `CN(C=O)c1cc2c3c(c1)CCCN3CCC2`, the survivor count is, setting by setting: under setting [3], 1 of 6; under setting [2], 0 of 6; under setting [6], 0 of 6.

Take `Cc1ccccc1CC#N`: the survivor count is, setting by setting: (T/C endpoint: mean survival time, dose: 50.0 mg/kg/injection, schedule: Q04DX002 (ip), vehicle: saline) 0 of 3; (T/C endpoint: mean survival time, dose: 100.0 mg/kg/injection, schedule: Q04DX002 (ip), vehicle: saline) 0 of 3; (T/C endpoint: mean survival time, dose: 200.0 mg/kg/injection, schedule: Q04DX002 (ip), vehicle: saline) 0 of 3; (T/C endpoint: mean survival time, dose: 400.0 mg/kg/injection, schedule: Q04DX002 (ip), vehicle: saline) 0 of 3.

Consider `CCCCCCCCCCCCCCCCC(C(=O)O)C(O)(CC(=O)O)C(=O)O` (configuration not stated), for which the survivor count under setting [3] was 0 of 6 and the survivor count under setting [2] is recorded as 0 of 6.

For the compound `CCN(Cc1cnc2nc(N)nc(N)c2n1)c1c(Cl)cc(C(=O)NC(CCC(=O)O)C(=O)O)cc1Cl` (configuration not stated), the T/C is, setting by setting: (T/C endpoint: mean survival time, dose: 12.5 mg/kg/injection, schedule: Q01DX009 (ip), vehicle: sodium bicarbonate) 136 % of control; (T/C endpoint: mean survival time, dose: 25.0 mg/kg/injection, schedule: Q01DX009 (ip), vehicle: sodium bicarbonate) 137 % of control; (T/C endpoint: mean survival time, dose: 50.0 mg/kg/injection, schedule: Q01DX009 (ip), vehicle: sodium bicarbonate) 139 % of control.

Take `CCOC(=O)CC/C=C/Cc1c(OC)c(C)c2c(c1OC(=O)NCc1ccc(N(CC)CC)cc1)C(=O)OC2`: the T/C runs as follows: (T/C endpoint: mean survival time, dose: 200.0 mg/kg/injection, schedule: Q04DX002 (ip), vehicle: saline with Tween-80) 125 % of control (2×); (T/C endpoint: mean survival time, dose: 400.0 mg/kg/injection, schedule: Q04DX002 (ip), vehicle: saline with Tween-80) 125 % of control (2×).

`Nc1ncnc2c1c1c(=S)nc[nH]c1n2C1OC(CO)C(O)C1O` (configuration not stated): the T/C runs as follows: (T/C endpoint: mean survival time, dose: 12.5 mg/kg/injection, schedule: Q01DX005 (ip), vehicle: water) 125 % of control; (T/C endpoint: mean survival time, dose: 25.0 mg/kg/injection, schedule: Q01DX005 (ip), vehicle: water) 125 % of control; (T/C endpoint: mean survival time, dose: 50.0 mg/kg/injection, schedule: Q01DX005 (ip), vehicle: water) 130 % of control; (T/C endpoint: mean survival time, dose: 100.0 mg/kg/injection, schedule: Q01DX005 (ip), vehicle: water) 138 % of control [4 of 6 alive]. The survivor count (T/C endpoint: mean survival time, dose: 200.0 mg/kg/injection, schedule: Q01DX005 (ip), vehicle: water) is listed as 1 of 6.

For the compound `Nc1nc(N)c2c(Cl)c(CNc3ccc(Cl)c(Cl)c3)ccc2n1`, the T/C runs as follows: (T/C endpoint: mean survival time, dose: 12.5 mg/kg/injection, schedule: Q01DX009 (ip), vehicle: saline with Tween-80) 133 and 144 % of control; (T/C endpoint: mean survival time, dose: 25.0 mg/kg/injection, schedule: Q01DX009 (ip), vehicle: saline with Tween-80) 144 % of control; under setting [3], 141 % of control; (T/C endpoint: median survival time, dose: 18.0 mg/kg/injection, schedule: Q01DX005 (ip), vehicle: saline with Tween-80) 139 % of control; (T/C endpoint: median survival time, dose: 30.0 mg/kg/injection, schedule: Q01DX005 (ip), vehicle: saline with Tween-80) 139 % of control; (T/C endpoint: median survival time, dose: 30.11 mg/kg/injection, schedule: Q01DX005 (ip), vehicle: saline with Tween-80) 131 % of control. The T/C was 144 % of control (T/C endpoint: median survival time, dose: 50.18 mg/kg/injection, schedule: Q01DX005 (ip), vehicle: saline with Tween-80); 128 and 134 % of control (T/C endpoint: median survival time, dose: 100.0 mg/kg/injection, schedule: Q01DX009 (ip), vehicle: saline with Tween-80).

`O=C1NC(=O)NC(C(=O)O)N1`: the survivor count by setting is: (T/C endpoint: mean survival time, dose: 200.0 mg/kg/injection, schedule: Q01DX009 (ip), vehicle: DMSO) 1 of 6; (T/C endpoint: mean survival time, dose: 400.0 mg/kg/injection, schedule: Q01DX009 (ip), vehicle: DMSO) 1 of 6.

`CCN(CC)c1ccc(N=Nc2c(C)nc(N)nc2-c2ccccc2)cc1`: the survivor count is listed as 0 of 6 (T/C endpoint: mean survival time, dose: 75.0 mg/kg/injection, schedule: Q01DX001 (ip), vehicle: saline) and 1 of 6 (T/C endpoint: mean survival time, dose: 300.0 mg/kg/injection, schedule: Q01DX001 (ip), vehicle: saline).

As to `O=C(O)c1cc(CBr)cc(CBr)c1`, the survivor count is listed as 0 of 6 (T/C endpoint: mean survival time, dose: 100.0 mg/kg/injection, schedule: Q01DX001 (ip), vehicle: saline with Tween-80); 0 of 6 (T/C endpoint: mean survival time, dose: 200.0 mg/kg/injection, schedule: Q01DX001 (ip), vehicle: saline with Tween-80); 0 of 6 under setting [6].

With `C[n+]1c2ccccc2c(N=[N+]=[N-])c2ccccc21`, the survivor count (T/C endpoint: mean survival time, dose: 100.0 mg/kg/injection, schedule: Q01DX001 (ip), vehicle: saline) was 0 of 6; the survivor count (T/C endpoint: mean survival time, dose: 200.0 mg/kg/injection, schedule: Q01DX001 (ip), vehicle: saline) is 0 of 6; the survivor count under setting [5] is reported as 0 of 6.

For `CC12C(=O)OC(=O)C1(C)C1OC2C(Br)C1Br` (configuration not stated), the survivor count is listed as 3 of 6 (T/C endpoint: mean survival time, dose: 200.0 mg/kg/injection, schedule: Q04DX003 (ip), vehicle: saline with Tween-80) and 1 of 6 under setting [1].

For `Cc1cc2c(cc1C)C(=O)c1ccccc1C2=O`, the survivor count is on record as 2 of 6 (T/C endpoint: mean survival time, dose: 200.0 mg/kg/injection, schedule: Q01DX009 (ip), vehicle: saline) and 0 of 6 (T/C endpoint: mean survival time, dose: 400.0 mg/kg/injection, schedule: Q04DX003 (ip), vehicle: saline).

In the case of `O=C(O)C(O)C(=O)O.[NH2-].[NH2-].[Pt+2]`, the survivor count (T/C endpoint: mean survival time, dose: 200.0 mg/kg/injection, schedule: Q04DX003 (ip), vehicle: saline) is given as 9 of 10.
